These are yes or no findings as the source states them, for the method shown. In cells and extracts the contact can be indirect. Binding can be weak; no strength is given. Tags and fused reporters may be left off the sequences shown.
What was measured:
[1] = target: T1, recombinant His-tagged NADPH-dependent thioredoxin reductase (NTRC) (Arabidopsis) (UniProt O22229); test: pull-down; 50 µg purified His-tagged bait incubated overnight at 4°C with chloroplast extracts (100 µg Chl, 1% dodecyl maltoside) in 25 mM Tris-HCl pH 7.8, 150 mM NaCl, 5 mM MgCl2, 10% glycerol; Ni-NTA agarose; six washes with 10 mM imidazole; eluted with 200 mM imidazole; immunoblot; only the target purified
T1 sequence: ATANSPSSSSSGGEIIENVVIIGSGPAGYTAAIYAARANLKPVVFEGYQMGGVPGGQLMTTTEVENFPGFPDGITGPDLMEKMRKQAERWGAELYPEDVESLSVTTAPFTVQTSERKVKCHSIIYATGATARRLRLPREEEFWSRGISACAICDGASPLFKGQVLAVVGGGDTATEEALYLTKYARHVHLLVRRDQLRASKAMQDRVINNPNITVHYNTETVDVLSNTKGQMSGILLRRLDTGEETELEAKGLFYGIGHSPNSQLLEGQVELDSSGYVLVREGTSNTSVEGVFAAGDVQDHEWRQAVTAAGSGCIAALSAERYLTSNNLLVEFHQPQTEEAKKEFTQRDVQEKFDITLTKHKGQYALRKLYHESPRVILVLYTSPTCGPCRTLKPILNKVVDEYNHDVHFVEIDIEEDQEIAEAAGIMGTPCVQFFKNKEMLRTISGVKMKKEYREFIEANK

[2] = target: T2, recombinant His-tagged thioredoxin f1 (Arabidopsis) (UniProt Q9XFH8); test: as above
T2 sequence: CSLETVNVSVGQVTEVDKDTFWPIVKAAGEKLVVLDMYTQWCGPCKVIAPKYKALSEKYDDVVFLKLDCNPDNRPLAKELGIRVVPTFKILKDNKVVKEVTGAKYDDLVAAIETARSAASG

[3] = target: T3, Arabidopsis NADPH-dependent thioredoxin reductase (NTRC) fused to a half of YFP (BiFC) (Arabidopsis) (UniProt O22229); test: split reporter; halves of YFP (pVyNE, pVyCE) fused to the proteins, co-expressed in N. benthamiana leaves by Agrobacterium infiltration; confocal microscopy after 2 days in the dark
T3 sequence: T1 sequence

[4] = target: T4, Arabidopsis thioredoxin f1 fused to a half of YFP (BiFC) (Arabidopsis) (UniProt Q9XFH8); test: as above
T4 sequence: T2 sequence

[5] = target: T5, thioredoxin m1 fused to a half of YFP (BiFC) (Arabidopsis) (UniProt O48737); test: as above
T5 sequence: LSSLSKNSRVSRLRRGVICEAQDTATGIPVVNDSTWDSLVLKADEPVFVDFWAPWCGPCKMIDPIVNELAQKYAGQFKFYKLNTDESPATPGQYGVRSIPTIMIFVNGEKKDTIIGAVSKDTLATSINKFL

[6] = target: T6, recombinant His-tagged thioredoxin m1 (Arabidopsis) (UniProt O48737); test: pull-down; 50 µg purified His-tagged bait incubated overnight at 4°C with chloroplast extracts (100 µg Chl, 1% dodecyl maltoside) in 25 mM Tris-HCl pH 7.8, 150 mM NaCl, 5 mM MgCl2, 10% glycerol; Ni-NTA agarose; six washes with 10 mM imidazole; eluted with 200 mM imidazole; immunoblot; only the target purified
T6 sequence: T5 sequence

binding [1]	binding [2]	binding [3]	binding [4]	binding [5]	binding [6]	Substance
binds	binds					5-aminolevulinic acid dehydratase (ALAD), endogenous (enzyme)
		binds	binds	binds		Arabidopsis GSAAT fused to a half of YFP (BiFC) (enzyme)
binds	binds				binds	glutamate-1-semialdehyde aminotransferase (GSAAT), endogenous (enzyme)
	no binding				no binding	light-harvesting chlorophyll a/b binding protein 1 of photosystem II (LHCB1), endogenous
